PubChem BioAssay AID1508600 (Functional Genomics Laboratory (NCATS/FGL), 2020)
The whole screen tested about 53,000 sequences, of which about 3,700 (7%) were called active.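 Rule for the calls: active = gene knockdowns whose robust z-score for IL-1 alpha signal is at least 2 or at most -2, so actives lie on both sides; inactive = the rest.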 The list shows a part of the results.

Test: Components of the Cytosolic LPS Sensing Pathway: Gene Identification via Genome-wide siRNA Screen;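 note: robust z of the log signal after scaling to non-targeting control siRNA wells of the plate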
Details: RAW264.7 macrophages, IL-1a HTRF, actives lie on both sides, screened at 100 nM (by protocol), cells primed 5 h with Pam3CSK4 first
Procedure, shortened: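 RAW264.7; siRNA 100 nM final, RNAiMAX, 48h 37 degrees C; Pam3CSK4 5 h; LipidA + TransIT-TKO 24 h; IL-1a HTRF; CellTiter-Glo viability; robust z vs negative-control median.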

| Sequence | z-score |
| --- | --- |
| GGCAGAAAUUUGGAUACCATT against Plekha4 | active: 2.1 |
| GGUCUACUUUAGACAACUUTT against Sdc1 | inactive: 0.373 |
| GGUGGAGAUAAAAAGAGAGTT against Hnrnpu | inactive: -1.07 |
| GGAAUAUACGAGAAAACCUTT against Epha7 | inactive: -0.382 |
| GGAAUACAUUCCUUUUAAGTT against Gpx3 | inactive: -1.27 |
| GGAAGGAGAUAUUGUGUUUTT against Sh3rf1 | inactive: -0.377 |
| GGAAGACCUUGUGUUUGCATT against Mmp13 | inactive: -0.692 |
| GCAAUUGAAAGUGAACAAUTT against Olfr1360 | inactive: -0.935 |
| GGAACUUUCAGAAUCAAUGTT against Cdh13 | inactive: 1.77 |
| GGUGAUCCUUAUGCUGUUATT against Ehmt2 | inactive: 0.305 |
| GGACAGCUGUUUCAAUUCUTT against Il1rap | inactive: -0.162 |
| GGAUGCUUGUGAAUAUGCUTT against Olfr346 | inactive: -0.512 |
| GGAUUUCAGCGAAGUGUACTT against Mapk11 | inactive: -0.395 |
| GAUCCUCUCUAGUACUUGATT against Ldoc1 | inactive: 0.0278 |
| GGGAGAAGAGGAACAGUUCTT against Slc25a17 | inactive: -0.135 |
| GGAUGUACUUAACUGUAAGTT against Dmac1 | inactive: 1.6 |
| GGAAUAUGGAAGGAAGAGUTT against E130311K13Rik | inactive: 0.782 |
| GGUCUUGCAUGUCUCUGAGTT against Lrrc47 | inactive: -1.45 |
| GGCCCUCAUCUUUGUGUCCTT against Mgll | inactive: -1.52 |
| GGCUGUGAAUGGAUGGAGGTT against Shpk | inactive: -0.908 |
| GGACCCGAAAAUAAUAUAGTT against Rasgef1b | inactive: 0.816 |
| GGAGUUUCGGGAGUUCAACTT against Kdm4c | inactive: 0.87 |
| GGUAGUGUCCCUGUAUUCCTT against Bok | inactive: 0.14 |

| Sequence | z-score |
| --- | --- |
| GGGAUGUGAAAUGCACCUUTT against Rftn1 | inactive: -1.03 |
| GGAGUUUUACCAGAAGCUGTT against Hs1bp3 | inactive: -0.438 |
| GGUCUCUUUCCUAUCCAUUTT against Casr | inactive: -1.11 |
| CAUGAUCGAUACCAUCACATT against Adcy1 | inactive: -0.858 |
| GGCGUGUGUAAUAAUUUCCTT against Haus4 | inactive: -0.241 |
| CCUUCUGUAGUUGGAAUCATT against Them5 | inactive: 1.41 |
| GGGAAGACAUGUGAAAAUGTT against Slc17a1 | inactive: 0.121 |
| GGAACAAAGGAUGAUAAUUTT against Pbrm1 | inactive: -0.684 |
| GGAGUCAGUACUGUAAAAUTT against Rin2 | inactive: -1.91 |
| GGAAUUGAGUAGCAGCUGATT against Polr2j | inactive: -0.426 |
| GGAUGUGAGGUGCACCAGATT against Trpv6 | inactive: -0.833 |
| GGAAACAUAAGCAAAAACUTT against Vipr2 | inactive: 0.092 |
| CGAGGUCUAUGAGGUAGACTT against Tekt3 | inactive: 0.0946 |
| GGUCAUUGCUUCCUAUGGCTT against Mgat1 | inactive: -0.754 |
| GCUGUAAGCCAAUUAACAUTT against Emp1 | inactive: 1.06 |
| GCCUUAGAACUCCUCAUUCTT against Apoo | inactive: -1.01 |
| GGCAAGAUGAAUUAAAAUGTT against Gcfc2 | inactive: -0.964 |
| GGCCAACCUGGAGAACUUGTT against Atp6v1c2 | inactive: 0.441 |
| GGUUUUUACCUACACUUGUTT against Rdh10 | inactive: -0.561 |
| CGAUGAAAACUACUCGGCATT against Runx1 | inactive: 1.49 |
| GGACCAAAAUCUAGAAUACTT against Zfp629 | inactive: -0.898 |
| GACAGAAAUAUAGACUCGATT against Ppp1r42 | active: -2.45 |
| CGAACGAUUGAAGAUUUCUTT against Nat3 | active: 2.81 |

Laid out differently: results already given.
GGAACAAAGGAUGAUAAUUTT against Pbrm1
  z-score: inactive: -0.684
GGAGUCAGUACUGUAAAAUTT against Rin2
  z-score: inactive: -1.91
GGAAUUGAGUAGCAGCUGATT against Polr2j
  z-score: inactive: -0.426

The list continues:

| Sequence | z-score |
| --- | --- |
| GGAUCAUCUCUUUGGGCUGTT against Tmem37 | inactive: 0.127 |
| GCUUAUCCGCCAUCAAAGATT against Zfp3 | inactive: 1.69 |
| GGCUUCUCCAAAGCUUUAGTT against Dkkl1 | inactive: -1.15 |
| CGUAUUUCACAAAUACGGATT against Sohlh2 | inactive: 0.215 |
| CGCAAGGAAAAAAAGUAAGTT against Slc16a13 | inactive: 0.93 |
| GGACACCUACCAAAAGUUATT against Cd9 | inactive: 0.432 |
| GGUUGCAGAUUUCCGAAGATT against Ficd | inactive: 0.0659 |
| GGCCCUUUAUUCUUAAAAGTT against Gpr88 | inactive: 0.267 |
| GGCAUACUACACAAAGCAGTT against Tssk4 | inactive: -1.23 |
| GGAAGAGCAACUGCUACAATT against Rnase1 | inactive: -1.98 |
| CCAAACCUAUUCUGAGAUGTT against Klrg2 | inactive: -0.0403 |
| GGAGUAGGAACAAAAAUUGTT against Polb | inactive: -0.153 |
| GCCGGUUUACUGCCUAAAATT against Snx32 | inactive: 0.669 |
| CGAAGAGUUUAAGUCCAUGTT against Bnip1 | inactive: 0.145 |
| GGAGAAGCAGUUUCUGAAUTT against Bsn | inactive: 1.38 |
| GGAUUUCAAAAACCACGUGTT against Snx1 | inactive: 1.14 |
| GCUAUACAUCGAGUUUGUCTT against Mlec | inactive: 0.298 |
| GCCAGAGCGGAUUAUUGGATT against Cbx1 | inactive: -1.19 |
| GGAAGAAAGCCAUUUGCUUTT against Nol9 | inactive: 1.71 |
| GGGAACAAGGUCAUCUCCUTT against Olfr1444 | inactive: 1.05 |
| GGAGACCUGAUUCCAGGCATT against Zfa-ps | inactive: -0.719 |
| CCUCACUUAACCAUACAUGTT against Rnd3 | inactive: 0.508 |
| GGGUUCUCUACCUCAUCCUTT against Uts2r | inactive: -0.387 |
